Source: PubChem BioAssay AID2283162 (EPA ToxCast)
Inconclusive results, whose numbers are uncertain, are shown with a selection of clear calls. Potencies beside an inconclusive call are fits to weak or partial responses and may not hold up. Calls of active or inactive are those of the source. How the source made its calls: active means hit-call score of the fitted dose curve at least 0.9, where 1 is the maximum; inconclusive means response in the unintended direction; inactive means score below 0.9.

Sequences of proteins named here, by UniProt entry; tags and fusion partners are left off.
UniProt P08069, whole entry, looked up: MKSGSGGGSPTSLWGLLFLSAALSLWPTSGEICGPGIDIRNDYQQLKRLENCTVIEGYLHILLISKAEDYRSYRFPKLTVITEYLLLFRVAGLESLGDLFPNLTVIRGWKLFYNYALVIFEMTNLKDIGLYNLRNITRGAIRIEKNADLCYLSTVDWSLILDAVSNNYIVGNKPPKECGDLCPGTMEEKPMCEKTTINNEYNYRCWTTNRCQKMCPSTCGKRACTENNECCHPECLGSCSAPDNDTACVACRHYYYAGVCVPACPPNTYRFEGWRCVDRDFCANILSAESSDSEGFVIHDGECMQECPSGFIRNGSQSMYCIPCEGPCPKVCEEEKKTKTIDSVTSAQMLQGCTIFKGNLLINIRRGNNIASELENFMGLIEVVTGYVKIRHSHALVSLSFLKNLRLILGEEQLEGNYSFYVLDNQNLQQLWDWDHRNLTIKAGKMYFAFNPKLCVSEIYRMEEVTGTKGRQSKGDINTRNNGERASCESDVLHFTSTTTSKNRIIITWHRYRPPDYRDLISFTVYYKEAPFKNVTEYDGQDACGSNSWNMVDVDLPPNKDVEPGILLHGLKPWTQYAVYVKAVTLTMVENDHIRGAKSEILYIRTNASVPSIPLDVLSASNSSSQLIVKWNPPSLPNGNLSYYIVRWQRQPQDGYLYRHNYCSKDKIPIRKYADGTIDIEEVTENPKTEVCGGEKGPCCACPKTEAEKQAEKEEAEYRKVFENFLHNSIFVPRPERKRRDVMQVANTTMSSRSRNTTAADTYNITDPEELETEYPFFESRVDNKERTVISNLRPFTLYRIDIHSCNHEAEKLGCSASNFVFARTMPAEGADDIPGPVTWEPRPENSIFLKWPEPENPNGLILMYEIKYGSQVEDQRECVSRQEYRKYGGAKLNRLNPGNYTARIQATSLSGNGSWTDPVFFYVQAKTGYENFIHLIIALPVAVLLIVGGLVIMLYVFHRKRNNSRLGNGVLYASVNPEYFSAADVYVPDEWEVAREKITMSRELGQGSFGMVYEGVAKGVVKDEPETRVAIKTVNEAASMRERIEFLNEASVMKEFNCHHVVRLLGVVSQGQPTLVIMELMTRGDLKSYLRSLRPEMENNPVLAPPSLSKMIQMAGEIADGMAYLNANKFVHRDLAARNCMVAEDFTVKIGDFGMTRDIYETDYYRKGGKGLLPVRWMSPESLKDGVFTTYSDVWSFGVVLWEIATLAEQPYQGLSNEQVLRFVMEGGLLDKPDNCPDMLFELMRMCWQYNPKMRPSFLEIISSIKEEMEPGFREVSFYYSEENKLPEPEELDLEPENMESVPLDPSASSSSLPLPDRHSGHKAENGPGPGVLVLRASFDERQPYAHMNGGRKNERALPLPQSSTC

Target: human Insulin-like Growth Factor 1 Receptor (IGF1R), IGF1R (gene 3480) (UniProt P08069)
Assay: NVS_ENZ_hIGF1R: NovaScreen (NVS) Enzymatic Assay for human Insulin-like Growth Factor 1 Receptor (IGF1R)
Experimental: NVS_ENZ_hIGF1R is a biochemical, single-readout assay that uses extracted gene-proteins in a cell-free assay. Measurements were taken 1 hour after chemical dosing in a 384-well plate.NVS_ENZ_hIGF1R is one of one assay component(s) measured or calculated from the NVS_ENZ_hIGF1R assay. It is designed to make measurements of enzyme activity, a form of enzyme reporter, as detected with fluorescence intensity signals by Fluorescence and electrophoretic mobility shift technology.Data from the assay component NVS_ENZ_hIGF1R was analyzed into 1 assay endpoint. This assay endpoint, NVS_ENZ_hIGF1R, was analyzed in the positive analysis fitting direction relative to DMSO as the negative control and baseline of activity. Using a type of enzyme reporter, loss-of-signal activity can be used to understand changes in the enzymatic activity as they relate to the gene IGF1R. Furthermore, this assay endpoint can be referred to as a primary readout, because this assay has produced multiple assay endpoints where this one serves a enzymatic activity function. To generalize the intended target to other relatable targets, this assay endpoint is annotated to the kinase intended target family, where the subfamily is receptor tyrosine kinase.
Binding assays used specific radioligands (tritiated, iodinated) with non-radioactive competitive displacement ligands in agonist or antagonist protocols (as indicated) and various reference compounds and inhibitors to titrate specific binding to receptors and transporters. Most enzyme assays (CYPs, kinases, phosphatases, proteases, HDACs) used recombinant protein and specific substrates (fluorescence mostly, some colorimetric and radioactive) and inhibitors, followed by a biochemical separation of substrate and product. All assays for the biochemical HTS were initially run in duplicate at a single concentration (10 uM for CYP450 assays and 25 uM for all others). Assay-chemical combinations meeting a pre-defined threshold (e.g., 30% inhibition and other criteria defined below) were then run in singleton concentration-response format with maximum concentration of 20 uM for CYPs and 50 uM for all others. Each assay was run with positive and negative controls, and concurrent controls on every plate. The follow-up (secondary) screen tested active chemical-pairs in concentration series, as well as a few additional assays not tested in the primary screen, some selected negative inactives, and several cases re-run in the concentration series for confirmatory purposes.

| Structure (SMILES) | AC50 | outcome |
| --- | --- | --- |
| CCCN(CCC)c1c([N+](=O)[O-])cc(S(N)(=O)=O)cc1[N+](=O)[O-] | inconclusive: 6.26 µM |  |
| CCC1(c2ccccc2)C(=O)N=C(O)NC1=O (centres undefined) |  | inactive |
| CN(C)[C@@H]1C(=O)C(C(N)=O)=C(O)[C@@]2(O)C(=O)C3=C(O)c4c(O)cccc4[C@@](C)(O)[C@H]3[C@H](O)[C@@H]12 | active: 39.4 µM |  |
| CC(C)C(=O)OCC(C)(C)C(OC(=O)C(C)C)C(C)C (centres undefined) |  | inactive |
| CC(C)(C)c1cc(O)ccc1O |  | inactive |
| N#Cc1cccnc1 | inconclusive: 25 µM |  |
| O=C(N[C@H]1CN2CCC1CC2)c1ccc2c(c1)OCCO2 |  | inactive |
| Clc1cccc(Cl)c1 |  | inactive |
| c1cc2c3c(cccc3c1)CC2 | inconclusive: 25 µM |  |
